The other results are listed elsewhere or left out.
Tests used:
Experiment in all cases: log2 fold change, soluble protein after heating vs DMSO (PISA); higher = thermal stabilisation; K562 cells, 10 uM, 30 min; active = over 0.2 and 3.5 SD of the protein, either way, in both replicates (recomputed)
[1] = compound: C/C(=N\NC(=O)C1=CC(=CC=C1)S(=O)(=O)N2CCOCC2)/C3=C(C=CC(=C3)Cl)O
How it was run: (§1)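 Soluble protein was defined as the supernatant after 21,000xg for 90 min. It came from K562 cells at 2×10^6 cells/mL given 10 μM compound for 30 min, heated in aliquots for 3 min across 48°C-58°C, pooled, and extracted in PBS with 0.5% NP-40 at 4°C, and was quantified by TMTpro 16plex LC-MS/MS with equalised channel sums. Thermal stability against control samples, from duplicates, is reported as log2 fold change.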

By UniProt entry, the sequences of proteins in these tests, tags left out. Where a name states a change or a piece, a line headed by the entry shows the natural chain unless it says otherwise.
UniProt Q9BTE7: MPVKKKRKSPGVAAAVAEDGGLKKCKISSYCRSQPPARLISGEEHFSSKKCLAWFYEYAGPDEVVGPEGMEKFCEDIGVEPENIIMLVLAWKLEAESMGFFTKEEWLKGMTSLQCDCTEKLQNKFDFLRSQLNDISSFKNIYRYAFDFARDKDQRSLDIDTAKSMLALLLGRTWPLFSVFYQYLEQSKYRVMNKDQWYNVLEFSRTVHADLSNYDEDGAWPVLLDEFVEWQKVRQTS
UniProt Q7LFL8: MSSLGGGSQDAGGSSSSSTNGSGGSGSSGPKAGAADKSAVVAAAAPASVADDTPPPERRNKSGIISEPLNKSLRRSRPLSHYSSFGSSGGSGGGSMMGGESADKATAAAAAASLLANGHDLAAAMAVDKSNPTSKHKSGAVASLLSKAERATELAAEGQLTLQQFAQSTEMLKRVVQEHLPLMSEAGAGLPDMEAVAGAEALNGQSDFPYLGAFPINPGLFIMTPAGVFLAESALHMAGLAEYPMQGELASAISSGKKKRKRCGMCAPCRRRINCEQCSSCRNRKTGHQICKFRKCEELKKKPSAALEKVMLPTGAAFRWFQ
UniProt Q8WV16: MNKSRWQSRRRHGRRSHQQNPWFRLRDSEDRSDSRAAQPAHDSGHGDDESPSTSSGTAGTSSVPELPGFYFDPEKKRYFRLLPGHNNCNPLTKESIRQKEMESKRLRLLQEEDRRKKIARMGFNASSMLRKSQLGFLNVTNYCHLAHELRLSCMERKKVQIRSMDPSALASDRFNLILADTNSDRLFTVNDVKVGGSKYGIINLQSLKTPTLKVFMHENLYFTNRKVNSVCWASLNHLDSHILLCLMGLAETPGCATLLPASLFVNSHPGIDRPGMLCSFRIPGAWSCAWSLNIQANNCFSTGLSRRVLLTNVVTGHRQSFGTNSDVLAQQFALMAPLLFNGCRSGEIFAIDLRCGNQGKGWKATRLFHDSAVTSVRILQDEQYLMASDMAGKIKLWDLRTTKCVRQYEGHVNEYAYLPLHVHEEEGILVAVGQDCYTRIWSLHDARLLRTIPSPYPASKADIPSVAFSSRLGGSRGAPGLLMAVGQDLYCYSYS
UniProt P01036: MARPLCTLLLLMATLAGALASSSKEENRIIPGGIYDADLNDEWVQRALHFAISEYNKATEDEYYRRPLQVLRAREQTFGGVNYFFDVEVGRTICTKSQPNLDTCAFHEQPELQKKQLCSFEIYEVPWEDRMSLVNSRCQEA
UniProt P25774, whole entry, looked up: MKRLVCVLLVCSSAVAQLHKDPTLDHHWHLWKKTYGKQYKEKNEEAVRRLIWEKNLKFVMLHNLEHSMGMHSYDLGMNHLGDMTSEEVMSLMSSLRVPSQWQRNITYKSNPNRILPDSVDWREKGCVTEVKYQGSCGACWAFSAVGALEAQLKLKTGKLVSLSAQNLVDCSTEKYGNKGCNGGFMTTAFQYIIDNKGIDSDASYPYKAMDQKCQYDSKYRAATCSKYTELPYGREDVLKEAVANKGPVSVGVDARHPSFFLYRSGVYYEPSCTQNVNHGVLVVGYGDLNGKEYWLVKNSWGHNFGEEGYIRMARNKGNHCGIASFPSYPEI
UniProt Q9Y6A2: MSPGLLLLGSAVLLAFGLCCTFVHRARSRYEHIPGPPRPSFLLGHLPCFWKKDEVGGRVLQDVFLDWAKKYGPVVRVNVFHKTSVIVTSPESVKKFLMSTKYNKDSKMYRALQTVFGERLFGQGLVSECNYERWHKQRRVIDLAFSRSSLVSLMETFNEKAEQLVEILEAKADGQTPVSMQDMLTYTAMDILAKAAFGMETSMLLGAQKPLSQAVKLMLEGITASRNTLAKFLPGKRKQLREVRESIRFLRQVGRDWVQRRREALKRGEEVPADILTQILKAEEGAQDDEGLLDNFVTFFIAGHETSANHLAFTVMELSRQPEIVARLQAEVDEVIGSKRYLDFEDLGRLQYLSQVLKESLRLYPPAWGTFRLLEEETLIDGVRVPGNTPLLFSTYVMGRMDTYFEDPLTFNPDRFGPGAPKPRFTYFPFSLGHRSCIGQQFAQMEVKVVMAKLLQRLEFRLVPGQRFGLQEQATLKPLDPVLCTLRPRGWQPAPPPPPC
UniProt Q9UBX1: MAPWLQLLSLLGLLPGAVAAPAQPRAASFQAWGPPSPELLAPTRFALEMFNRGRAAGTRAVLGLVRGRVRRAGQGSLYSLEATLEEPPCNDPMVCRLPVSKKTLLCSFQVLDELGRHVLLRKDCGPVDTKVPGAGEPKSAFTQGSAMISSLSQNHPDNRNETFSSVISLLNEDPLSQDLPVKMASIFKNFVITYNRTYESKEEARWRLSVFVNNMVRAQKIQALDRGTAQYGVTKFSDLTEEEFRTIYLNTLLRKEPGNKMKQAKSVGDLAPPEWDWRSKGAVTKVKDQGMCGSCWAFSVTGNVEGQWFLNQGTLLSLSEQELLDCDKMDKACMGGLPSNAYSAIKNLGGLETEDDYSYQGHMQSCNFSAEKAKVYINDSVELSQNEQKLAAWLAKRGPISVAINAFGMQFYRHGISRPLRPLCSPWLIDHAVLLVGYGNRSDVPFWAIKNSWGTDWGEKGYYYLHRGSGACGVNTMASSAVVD
UniProt O95196: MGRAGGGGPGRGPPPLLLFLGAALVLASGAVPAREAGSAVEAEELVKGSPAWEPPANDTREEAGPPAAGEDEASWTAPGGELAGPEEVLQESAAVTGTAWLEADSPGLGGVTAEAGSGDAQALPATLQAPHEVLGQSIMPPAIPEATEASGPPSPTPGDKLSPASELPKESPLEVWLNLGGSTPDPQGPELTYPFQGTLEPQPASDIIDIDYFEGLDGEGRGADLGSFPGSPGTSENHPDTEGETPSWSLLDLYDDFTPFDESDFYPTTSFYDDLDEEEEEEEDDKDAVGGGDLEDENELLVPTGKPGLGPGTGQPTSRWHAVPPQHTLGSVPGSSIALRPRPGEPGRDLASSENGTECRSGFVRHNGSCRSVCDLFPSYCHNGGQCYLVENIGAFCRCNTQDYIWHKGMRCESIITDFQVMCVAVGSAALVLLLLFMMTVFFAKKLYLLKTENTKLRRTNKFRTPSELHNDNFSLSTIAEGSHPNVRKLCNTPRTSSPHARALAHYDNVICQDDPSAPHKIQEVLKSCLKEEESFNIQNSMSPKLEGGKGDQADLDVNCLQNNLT
UniProt P01037: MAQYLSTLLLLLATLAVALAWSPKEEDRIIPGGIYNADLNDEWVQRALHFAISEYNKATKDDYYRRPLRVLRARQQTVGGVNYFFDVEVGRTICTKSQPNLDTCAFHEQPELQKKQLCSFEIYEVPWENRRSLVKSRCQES
UniProt Q9GZU7: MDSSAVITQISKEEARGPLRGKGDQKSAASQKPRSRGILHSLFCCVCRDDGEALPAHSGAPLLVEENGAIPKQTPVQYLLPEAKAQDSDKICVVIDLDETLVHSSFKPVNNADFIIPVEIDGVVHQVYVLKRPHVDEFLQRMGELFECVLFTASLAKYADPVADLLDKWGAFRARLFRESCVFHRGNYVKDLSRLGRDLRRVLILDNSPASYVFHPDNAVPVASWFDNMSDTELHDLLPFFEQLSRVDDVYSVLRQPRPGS
UniProt Q96DE9: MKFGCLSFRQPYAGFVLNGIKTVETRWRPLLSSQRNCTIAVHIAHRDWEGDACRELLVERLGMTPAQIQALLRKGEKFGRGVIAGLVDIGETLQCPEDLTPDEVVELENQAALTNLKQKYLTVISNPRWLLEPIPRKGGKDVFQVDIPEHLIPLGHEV
UniProt Q15828: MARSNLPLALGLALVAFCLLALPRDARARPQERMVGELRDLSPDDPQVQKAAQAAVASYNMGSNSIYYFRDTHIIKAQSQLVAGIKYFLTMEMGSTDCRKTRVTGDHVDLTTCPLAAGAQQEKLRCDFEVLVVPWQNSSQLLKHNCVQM
UniProt Q8WYA6: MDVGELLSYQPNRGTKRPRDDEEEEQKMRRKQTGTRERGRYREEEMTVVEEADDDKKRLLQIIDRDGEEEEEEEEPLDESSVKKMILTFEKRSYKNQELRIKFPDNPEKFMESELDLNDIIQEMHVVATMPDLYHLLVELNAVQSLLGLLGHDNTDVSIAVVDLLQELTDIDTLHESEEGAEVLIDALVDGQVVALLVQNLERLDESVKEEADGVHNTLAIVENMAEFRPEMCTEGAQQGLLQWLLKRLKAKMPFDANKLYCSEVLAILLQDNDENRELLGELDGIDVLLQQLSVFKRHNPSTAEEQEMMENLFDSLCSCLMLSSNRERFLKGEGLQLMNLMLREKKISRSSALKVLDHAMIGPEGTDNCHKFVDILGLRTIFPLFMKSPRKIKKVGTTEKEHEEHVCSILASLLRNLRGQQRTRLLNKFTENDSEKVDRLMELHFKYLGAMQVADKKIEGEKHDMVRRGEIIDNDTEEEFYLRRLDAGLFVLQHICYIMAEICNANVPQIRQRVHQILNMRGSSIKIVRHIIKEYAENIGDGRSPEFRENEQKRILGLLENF
UniProt Q53TN4: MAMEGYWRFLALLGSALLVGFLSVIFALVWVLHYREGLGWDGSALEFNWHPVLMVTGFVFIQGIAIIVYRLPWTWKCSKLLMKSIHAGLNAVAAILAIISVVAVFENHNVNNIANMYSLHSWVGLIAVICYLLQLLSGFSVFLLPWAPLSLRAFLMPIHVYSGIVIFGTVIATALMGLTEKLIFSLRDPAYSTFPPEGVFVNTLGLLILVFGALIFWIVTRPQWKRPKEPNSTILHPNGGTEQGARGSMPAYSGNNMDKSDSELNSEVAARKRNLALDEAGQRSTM
UniProt P53355: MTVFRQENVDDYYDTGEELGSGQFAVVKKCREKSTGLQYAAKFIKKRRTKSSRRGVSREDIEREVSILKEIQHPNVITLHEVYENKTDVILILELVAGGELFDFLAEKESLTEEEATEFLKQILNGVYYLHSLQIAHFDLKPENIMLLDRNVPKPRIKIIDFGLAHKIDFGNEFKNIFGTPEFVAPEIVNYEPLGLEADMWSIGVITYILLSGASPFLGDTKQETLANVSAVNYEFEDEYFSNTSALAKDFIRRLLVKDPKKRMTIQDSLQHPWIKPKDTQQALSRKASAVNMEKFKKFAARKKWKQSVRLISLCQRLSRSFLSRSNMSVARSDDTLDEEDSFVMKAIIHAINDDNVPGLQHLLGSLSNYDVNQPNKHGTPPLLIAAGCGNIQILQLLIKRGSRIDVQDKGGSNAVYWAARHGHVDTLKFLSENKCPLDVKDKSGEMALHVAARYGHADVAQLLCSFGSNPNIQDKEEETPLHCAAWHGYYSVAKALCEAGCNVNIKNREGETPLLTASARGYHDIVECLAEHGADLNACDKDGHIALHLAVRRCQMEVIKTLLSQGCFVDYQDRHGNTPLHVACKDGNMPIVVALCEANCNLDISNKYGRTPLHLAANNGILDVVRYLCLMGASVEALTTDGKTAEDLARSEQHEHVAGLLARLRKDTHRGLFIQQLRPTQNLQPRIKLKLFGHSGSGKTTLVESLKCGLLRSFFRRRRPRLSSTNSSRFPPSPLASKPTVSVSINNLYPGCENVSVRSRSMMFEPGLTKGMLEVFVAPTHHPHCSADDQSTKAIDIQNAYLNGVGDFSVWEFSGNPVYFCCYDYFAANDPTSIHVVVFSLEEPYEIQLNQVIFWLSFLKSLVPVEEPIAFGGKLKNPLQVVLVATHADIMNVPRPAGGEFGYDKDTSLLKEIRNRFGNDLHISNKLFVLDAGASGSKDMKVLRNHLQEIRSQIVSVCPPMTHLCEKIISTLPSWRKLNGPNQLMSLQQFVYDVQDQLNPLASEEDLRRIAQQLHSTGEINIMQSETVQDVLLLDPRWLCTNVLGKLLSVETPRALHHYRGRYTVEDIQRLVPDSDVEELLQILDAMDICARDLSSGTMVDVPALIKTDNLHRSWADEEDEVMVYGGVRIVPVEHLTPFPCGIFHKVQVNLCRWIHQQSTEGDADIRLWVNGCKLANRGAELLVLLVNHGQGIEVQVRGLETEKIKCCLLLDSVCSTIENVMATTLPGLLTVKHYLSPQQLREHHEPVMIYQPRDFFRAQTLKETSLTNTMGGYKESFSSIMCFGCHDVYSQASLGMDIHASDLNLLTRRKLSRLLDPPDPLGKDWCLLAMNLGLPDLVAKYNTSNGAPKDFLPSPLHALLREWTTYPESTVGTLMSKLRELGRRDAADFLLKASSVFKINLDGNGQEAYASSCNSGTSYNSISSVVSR
UniProt Q5H9S7: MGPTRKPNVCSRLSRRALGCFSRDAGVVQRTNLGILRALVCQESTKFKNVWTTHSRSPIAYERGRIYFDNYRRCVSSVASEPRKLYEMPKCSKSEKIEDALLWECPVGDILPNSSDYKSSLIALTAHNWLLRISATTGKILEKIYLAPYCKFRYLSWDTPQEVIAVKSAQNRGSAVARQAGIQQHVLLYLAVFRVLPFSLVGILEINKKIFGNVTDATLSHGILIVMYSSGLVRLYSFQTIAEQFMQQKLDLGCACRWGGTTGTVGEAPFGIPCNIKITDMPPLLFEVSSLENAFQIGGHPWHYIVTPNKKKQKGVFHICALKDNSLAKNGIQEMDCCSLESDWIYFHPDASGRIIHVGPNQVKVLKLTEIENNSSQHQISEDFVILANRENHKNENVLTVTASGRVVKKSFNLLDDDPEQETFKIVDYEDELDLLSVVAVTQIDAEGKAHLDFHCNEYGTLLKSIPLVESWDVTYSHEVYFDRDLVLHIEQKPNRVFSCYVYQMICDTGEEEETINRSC

[2] = compound: C1=CC2=C(C=CC(=C2)/C=C\3/C(=O)NC(=NCC4=CC=CS4)S3)N=C1
How it was run: as §1

[3] = compound: C1=CC=C(C=C1)C2=NC(=C(N2)C3=CC=NC=C3)C4=CC(=C(C=C4)Cl)O
How it was run: as §1

[4] = compound: C1=CC=C2C(=C1)C3=NNC4=CC=CC(=C43)C2=O
How it was run: as §1

[5] = compound: C1CCN(C1)C(=O)NC2=CC=CC(=C2)NC3=NC=C(C(=N3)NCCC4=CN=CN4)Br
How it was run: as §1

[6] = compound: C1CN(CCC1(CC2=CC=C(C=C2)Cl)N)C3=NC=NC4=C3C=CN4
How it was run: as §1

[7] = compound: C1=CC(=C(C=C1Cl)C2=NC3=NC=CN=C3C(=N2)NC4=CC=NC=C4)F
How it was run: as §1

erlotinib = compound: C#Cc1cccc(Nc2ncnc3cc(OCCOC)c(OCCOC)cc23)c1 [erlotinib]
How it was run: as §1

[8] = compound: C1=CC(=CC=C1C2=NC3=C(N2)C=C(C=C3)C(=O)N)OC4=CC=C(C=C4)Cl
How it was run: as §1

[9] = compound: C1=CC2=NC=CN=C2C=C1/C=C/3\C(=O)NC(=O)S3
How it was run: as §1

Measured: log2 fold change

CSRP2 (UniProt Q16527)
inactive: [1] 0.003 | [2] -0.07 | [3] -0.125 | [4] -0.03 | [5] 0.016 | [6] 0.061

DCUN1D5 (UniProt Q9BTE7)
inactive: [1] -0.174 | [2] 0.038 | [3] -0.097 | [4] -0.134 | [5] -0.012 | [6] -0.04

CTDSPL2 (UniProt Q05D32)
inactive: [1] 0.042 | [7] 0.064 | [2] -0.242 | [4] 0.055

CTDNEP1 (UniProt O95476)
inactive: erlotinib -0.163 | [1] -0.04 | [8] -0.052 | [2] 0.086 | [4] -0.007 | [5] -0.287 | [6] 0.153

CXXC5 (UniProt Q7LFL8)
inactive: erlotinib 0.044 | [7] -0.162 | [8] -0.1 | [3] 0.116

CXXC1 isoform 2 (UniProt Q9P0U4)
inactive: [1] -0.013 | [2] 0.122 | [4] -0.016 | [5] 0.081 | [6] 0.042

CTBP1 (UniProt E7ESU7)
inactive: erlotinib 0.124 | [8] 0.004

CYTH1 (UniProt Q15438)
inactive: [1] 0.169 | [7] 0.023 | [2] 0.012 | [4] -0.061 | [5] -0.133 | [6] -0.025

DCAF4 (UniProt Q8WV16)
inactive: [7] 0.009 | [3] -0.15

CST4 (UniProt P01036)
inactive: [9] -0.217

CTSS (UniProt P25774)
inactive: [3] -0.215 | [5] 0.144 | [6] 0.545

DCUN1D4 isoform 3 (UniProt Q92564)
inactive: [1] 0.148 | [7] 0.097 | [2] 0.04 | [4] 0.037 | [5] 0.047 | [6] 0.082

CYP46A1 (UniProt Q9Y6A2)
inactive: [1] -0.02 | [2] 0.097 | [9] 0.031 | [3] -0.454 | [4] 0.14 | [5] 0.072 | [6] -0.062

CYP2R1 (UniProt Q6VVX0)
inactive: [9] 0.053 | [5] 0.073 | [6] 0.081

DCBLD2 isoform 2 (UniProt Q96PD2)
inactive: [1] 0.348 | [2] -0.292 | [4] 0.232

CTSF (UniProt Q9UBX1)
inactive: erlotinib -0.034 | [7] -0.133 | [8] 0.116

CYREN (UniProt Q9BWK5)
inactive: erlotinib -0.027 | [8] 0.112 | [3] 0.027

CSPG5 (UniProt O95196)
inactive: erlotinib -0.002 | [7] 0.143 | [8] -0.084

CST1 (UniProt P01037)
inactive: [7] -0.097 | [9] -0.158

DCP2 (UniProt Q8IU60)
inactive: [1] 0.176 | [7] -0.117 | [2] -0.118 | [3] 0.021 | [4] -0.073 | [5] -0.134 | [6] -0.064

CTDSP1 (UniProt Q9GZU7)
inactive: erlotinib -0.064 | [8] 0.049 | [3] -0.069 | [5] -0.05 | [6] -0.221

CXorf40B (UniProt Q96DE9)
inactive: [1] 0.057 | [7] 0.027 | [2] 0.113 | [3] 0.039 | [4] -0.221

CST6 (UniProt Q15828)
inactive: [7] -0.041 | [5] -0.009 | [6] -0.269

2 successive records from above, for reference:
CTDSP1 (UniProt Q9GZU7)
inactive: erlotinib -0.064 | [8] 0.049 | [3] -0.069 | [5] -0.05 | [6] -0.221

CXorf40B (UniProt Q96DE9)
inactive: [1] 0.057 | [7] 0.027 | [2] 0.113 | [3] 0.039 | [4] -0.221

Following part:

CWF19L2 (UniProt Q2TBE0)
inactive: erlotinib 0.004 | [1] 0.056 | [8] 0.038 | [2] 0.03 | [3] -0.132 | [4] -0.014 | [5] 0.017 | [6] -0.04

CUL7 isoform 2 (UniProt Q14999)
inactive: erlotinib -0.148 | [7] -0.189 | [8] 0.113 | [3] -0.114 | [5] -0.011 | [6] 0.128

CTR9 (UniProt Q6PD62)
inactive: erlotinib 0.036 | [7] -0.143 | [8] 0.272 | [3] -0.136

CTDP1 (UniProt Q9Y5B0)
inactive: erlotinib -0.059 | [7] 0.056 | [8] 0.03 | [5] -0.033 | [6] -0.139

DCP1B (UniProt Q8IZD4)
inactive: [9] 0.079 | [5] -0.164 | [6] -0.197

CYREN isoform 4 (UniProt Q9BWK5)
inactive: [1] -0.191 | [2] 0.05 | [9] -0.013 | [4] -0.071

CTNNBL1 (UniProt Q8WYA6)
inactive: [9] -0.032

CYBRD1 (UniProt Q53TN4)
inactive: erlotinib 0.086 | [1] 0.031 | [8] 0.069 | [2] -0.078 | [3] -0.076 | [4] -0.022

DAPK1 isoform 3 (UniProt P53355)
inactive: [7] -0.496 | [9] 0.146 | [3] -0.331

DCAF17 (UniProt Q5H9S7)
inactive: [7] 0.015

CTIF (UniProt O43310)
inactive: [7] -0.056 | [3] -0.457 | [5] -0.019 | [6] -0.103

— the supplement of paper PMC10849652
